Reference: the supplement of paper PMC12819154, “High-throughput peptide-centric local stability assay extends protein–ligand identification to membrane proteins, tissues and bacteria” (Nature Structural & Molecular Biology, 2025)
Some of the results follow. Small differences around the control level are noise.

Sequences of proteins named here, by UniProt entry; tags and fusion partners are left off. A change or cut given only in a name is not applied to a line headed by its entry.
UniProt P42125: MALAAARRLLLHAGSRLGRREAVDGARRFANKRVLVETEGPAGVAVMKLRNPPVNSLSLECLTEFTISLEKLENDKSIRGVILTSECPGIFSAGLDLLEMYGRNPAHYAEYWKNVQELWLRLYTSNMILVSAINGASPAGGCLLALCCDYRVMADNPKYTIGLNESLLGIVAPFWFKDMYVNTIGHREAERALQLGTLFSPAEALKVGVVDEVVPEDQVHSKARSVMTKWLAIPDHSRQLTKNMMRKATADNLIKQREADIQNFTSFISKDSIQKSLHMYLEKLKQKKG
UniProt P29754, whole entry: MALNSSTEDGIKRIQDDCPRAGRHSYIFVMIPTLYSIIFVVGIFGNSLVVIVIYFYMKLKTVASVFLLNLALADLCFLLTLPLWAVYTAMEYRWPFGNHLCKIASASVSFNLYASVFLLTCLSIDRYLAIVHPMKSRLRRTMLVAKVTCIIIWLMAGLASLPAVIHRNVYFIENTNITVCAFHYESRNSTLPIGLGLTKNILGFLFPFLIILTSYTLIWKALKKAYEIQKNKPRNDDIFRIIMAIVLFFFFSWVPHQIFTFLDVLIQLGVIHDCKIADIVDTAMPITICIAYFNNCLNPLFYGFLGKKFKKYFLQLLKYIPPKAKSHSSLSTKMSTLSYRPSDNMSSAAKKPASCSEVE
UniProt P52332: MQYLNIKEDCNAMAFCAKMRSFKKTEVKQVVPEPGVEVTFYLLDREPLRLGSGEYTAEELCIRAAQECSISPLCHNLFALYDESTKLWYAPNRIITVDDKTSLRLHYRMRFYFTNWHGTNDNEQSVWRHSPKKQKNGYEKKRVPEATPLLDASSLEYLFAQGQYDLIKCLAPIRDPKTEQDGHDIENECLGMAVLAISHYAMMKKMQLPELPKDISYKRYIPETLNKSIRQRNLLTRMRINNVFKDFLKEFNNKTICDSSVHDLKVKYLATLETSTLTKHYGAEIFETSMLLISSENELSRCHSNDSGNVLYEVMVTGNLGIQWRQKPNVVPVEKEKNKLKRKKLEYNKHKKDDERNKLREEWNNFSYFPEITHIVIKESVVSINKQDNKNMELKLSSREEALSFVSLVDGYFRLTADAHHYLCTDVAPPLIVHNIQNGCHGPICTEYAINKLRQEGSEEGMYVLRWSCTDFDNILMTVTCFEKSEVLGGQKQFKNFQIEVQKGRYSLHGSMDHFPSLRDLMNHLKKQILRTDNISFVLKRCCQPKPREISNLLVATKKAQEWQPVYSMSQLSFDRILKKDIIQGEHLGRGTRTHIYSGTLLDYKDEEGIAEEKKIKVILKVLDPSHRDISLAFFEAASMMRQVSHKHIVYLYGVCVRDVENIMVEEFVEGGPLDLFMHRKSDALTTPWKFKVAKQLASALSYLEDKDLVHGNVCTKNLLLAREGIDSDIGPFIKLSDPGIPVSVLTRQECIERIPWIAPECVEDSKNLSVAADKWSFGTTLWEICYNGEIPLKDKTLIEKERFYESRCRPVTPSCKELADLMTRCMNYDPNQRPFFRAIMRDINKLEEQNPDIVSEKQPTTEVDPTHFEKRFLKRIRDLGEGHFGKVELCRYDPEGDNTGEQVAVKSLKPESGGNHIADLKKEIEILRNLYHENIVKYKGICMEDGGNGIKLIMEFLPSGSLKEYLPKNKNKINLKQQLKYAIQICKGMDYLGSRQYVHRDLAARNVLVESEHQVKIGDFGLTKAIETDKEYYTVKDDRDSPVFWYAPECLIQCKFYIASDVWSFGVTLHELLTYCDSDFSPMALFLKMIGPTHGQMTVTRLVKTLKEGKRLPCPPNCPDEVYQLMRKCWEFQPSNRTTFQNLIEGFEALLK
UniProt P56654, whole entry: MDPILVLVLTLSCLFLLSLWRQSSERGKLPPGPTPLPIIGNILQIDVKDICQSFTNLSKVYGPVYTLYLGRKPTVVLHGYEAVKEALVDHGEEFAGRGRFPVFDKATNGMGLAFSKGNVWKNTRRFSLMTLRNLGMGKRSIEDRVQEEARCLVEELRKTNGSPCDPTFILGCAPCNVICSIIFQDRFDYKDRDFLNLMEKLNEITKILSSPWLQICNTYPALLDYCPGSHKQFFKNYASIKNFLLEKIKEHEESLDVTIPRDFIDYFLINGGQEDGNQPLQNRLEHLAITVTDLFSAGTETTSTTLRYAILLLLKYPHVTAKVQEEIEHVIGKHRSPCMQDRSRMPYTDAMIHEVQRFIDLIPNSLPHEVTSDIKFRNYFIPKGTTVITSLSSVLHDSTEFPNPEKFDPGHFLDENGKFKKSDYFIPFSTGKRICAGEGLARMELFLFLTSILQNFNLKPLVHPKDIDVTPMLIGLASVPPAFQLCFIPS
UniProt P31786: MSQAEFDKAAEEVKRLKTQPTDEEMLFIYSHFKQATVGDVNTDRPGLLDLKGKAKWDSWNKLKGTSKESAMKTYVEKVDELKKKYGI
UniProt P38060: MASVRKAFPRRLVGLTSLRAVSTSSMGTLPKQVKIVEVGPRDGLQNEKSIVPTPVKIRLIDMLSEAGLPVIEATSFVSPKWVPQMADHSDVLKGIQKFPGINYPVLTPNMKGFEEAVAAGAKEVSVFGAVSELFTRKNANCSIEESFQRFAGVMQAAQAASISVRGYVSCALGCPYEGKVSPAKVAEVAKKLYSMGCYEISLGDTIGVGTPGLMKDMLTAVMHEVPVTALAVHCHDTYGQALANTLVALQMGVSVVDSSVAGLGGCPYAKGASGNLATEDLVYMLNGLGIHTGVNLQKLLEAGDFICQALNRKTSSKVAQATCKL
UniProt P46061: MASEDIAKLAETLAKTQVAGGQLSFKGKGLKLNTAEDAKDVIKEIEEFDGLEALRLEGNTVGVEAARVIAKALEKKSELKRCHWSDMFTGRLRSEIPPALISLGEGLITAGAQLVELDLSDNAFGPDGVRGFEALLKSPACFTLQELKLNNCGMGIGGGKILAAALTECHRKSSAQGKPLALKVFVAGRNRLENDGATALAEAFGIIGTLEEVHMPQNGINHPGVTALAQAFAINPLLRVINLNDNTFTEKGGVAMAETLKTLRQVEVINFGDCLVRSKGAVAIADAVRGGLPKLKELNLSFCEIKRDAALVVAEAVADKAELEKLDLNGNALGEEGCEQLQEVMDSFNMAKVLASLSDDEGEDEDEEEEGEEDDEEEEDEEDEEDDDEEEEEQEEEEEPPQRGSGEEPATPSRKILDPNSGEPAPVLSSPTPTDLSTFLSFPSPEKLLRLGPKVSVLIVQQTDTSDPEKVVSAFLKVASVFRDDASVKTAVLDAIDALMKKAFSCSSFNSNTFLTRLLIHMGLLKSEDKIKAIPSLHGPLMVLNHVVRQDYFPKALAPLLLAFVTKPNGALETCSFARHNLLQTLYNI
UniProt P35831: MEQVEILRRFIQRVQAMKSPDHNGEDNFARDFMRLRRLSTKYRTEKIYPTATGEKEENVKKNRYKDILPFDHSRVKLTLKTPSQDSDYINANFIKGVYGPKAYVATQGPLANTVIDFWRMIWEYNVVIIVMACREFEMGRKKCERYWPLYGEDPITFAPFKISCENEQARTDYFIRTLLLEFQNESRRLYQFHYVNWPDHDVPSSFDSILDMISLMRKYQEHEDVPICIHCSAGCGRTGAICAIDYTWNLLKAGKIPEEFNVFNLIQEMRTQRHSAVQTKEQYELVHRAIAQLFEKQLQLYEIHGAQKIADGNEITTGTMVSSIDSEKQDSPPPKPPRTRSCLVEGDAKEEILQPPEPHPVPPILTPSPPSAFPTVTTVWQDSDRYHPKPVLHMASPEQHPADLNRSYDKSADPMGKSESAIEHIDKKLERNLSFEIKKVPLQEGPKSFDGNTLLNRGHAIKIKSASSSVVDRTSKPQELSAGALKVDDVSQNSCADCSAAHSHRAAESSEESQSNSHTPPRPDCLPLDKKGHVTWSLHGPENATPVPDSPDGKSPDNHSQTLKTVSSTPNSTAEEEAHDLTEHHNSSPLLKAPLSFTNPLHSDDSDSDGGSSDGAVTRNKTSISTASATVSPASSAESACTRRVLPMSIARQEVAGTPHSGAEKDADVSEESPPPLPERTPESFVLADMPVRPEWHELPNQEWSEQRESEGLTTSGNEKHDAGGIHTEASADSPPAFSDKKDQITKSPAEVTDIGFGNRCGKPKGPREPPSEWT
UniProt P56380: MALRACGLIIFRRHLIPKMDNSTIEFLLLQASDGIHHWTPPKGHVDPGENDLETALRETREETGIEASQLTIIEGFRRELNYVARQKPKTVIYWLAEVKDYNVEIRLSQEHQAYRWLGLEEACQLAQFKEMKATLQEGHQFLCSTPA
UniProt P29699: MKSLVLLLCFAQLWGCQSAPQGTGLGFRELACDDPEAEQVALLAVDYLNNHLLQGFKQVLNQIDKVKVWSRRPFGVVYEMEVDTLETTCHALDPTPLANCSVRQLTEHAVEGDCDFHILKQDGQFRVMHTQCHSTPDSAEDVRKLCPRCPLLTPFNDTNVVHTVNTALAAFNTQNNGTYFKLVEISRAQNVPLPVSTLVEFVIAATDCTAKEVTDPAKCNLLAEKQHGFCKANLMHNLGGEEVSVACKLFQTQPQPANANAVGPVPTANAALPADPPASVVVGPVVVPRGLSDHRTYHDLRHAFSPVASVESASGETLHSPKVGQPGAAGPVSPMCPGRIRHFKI
UniProt P47740: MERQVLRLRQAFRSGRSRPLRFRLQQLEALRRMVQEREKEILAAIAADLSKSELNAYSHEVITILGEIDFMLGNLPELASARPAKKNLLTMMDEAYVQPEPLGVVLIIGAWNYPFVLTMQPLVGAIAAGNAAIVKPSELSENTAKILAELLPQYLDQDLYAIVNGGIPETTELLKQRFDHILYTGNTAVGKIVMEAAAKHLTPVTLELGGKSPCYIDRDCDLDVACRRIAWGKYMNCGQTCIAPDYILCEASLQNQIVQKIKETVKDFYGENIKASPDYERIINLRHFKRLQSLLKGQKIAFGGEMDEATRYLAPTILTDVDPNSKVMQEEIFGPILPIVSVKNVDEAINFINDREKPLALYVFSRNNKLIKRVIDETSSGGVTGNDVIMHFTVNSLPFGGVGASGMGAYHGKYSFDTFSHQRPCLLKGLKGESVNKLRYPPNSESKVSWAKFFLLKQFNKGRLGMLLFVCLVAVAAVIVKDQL
UniProt P54761: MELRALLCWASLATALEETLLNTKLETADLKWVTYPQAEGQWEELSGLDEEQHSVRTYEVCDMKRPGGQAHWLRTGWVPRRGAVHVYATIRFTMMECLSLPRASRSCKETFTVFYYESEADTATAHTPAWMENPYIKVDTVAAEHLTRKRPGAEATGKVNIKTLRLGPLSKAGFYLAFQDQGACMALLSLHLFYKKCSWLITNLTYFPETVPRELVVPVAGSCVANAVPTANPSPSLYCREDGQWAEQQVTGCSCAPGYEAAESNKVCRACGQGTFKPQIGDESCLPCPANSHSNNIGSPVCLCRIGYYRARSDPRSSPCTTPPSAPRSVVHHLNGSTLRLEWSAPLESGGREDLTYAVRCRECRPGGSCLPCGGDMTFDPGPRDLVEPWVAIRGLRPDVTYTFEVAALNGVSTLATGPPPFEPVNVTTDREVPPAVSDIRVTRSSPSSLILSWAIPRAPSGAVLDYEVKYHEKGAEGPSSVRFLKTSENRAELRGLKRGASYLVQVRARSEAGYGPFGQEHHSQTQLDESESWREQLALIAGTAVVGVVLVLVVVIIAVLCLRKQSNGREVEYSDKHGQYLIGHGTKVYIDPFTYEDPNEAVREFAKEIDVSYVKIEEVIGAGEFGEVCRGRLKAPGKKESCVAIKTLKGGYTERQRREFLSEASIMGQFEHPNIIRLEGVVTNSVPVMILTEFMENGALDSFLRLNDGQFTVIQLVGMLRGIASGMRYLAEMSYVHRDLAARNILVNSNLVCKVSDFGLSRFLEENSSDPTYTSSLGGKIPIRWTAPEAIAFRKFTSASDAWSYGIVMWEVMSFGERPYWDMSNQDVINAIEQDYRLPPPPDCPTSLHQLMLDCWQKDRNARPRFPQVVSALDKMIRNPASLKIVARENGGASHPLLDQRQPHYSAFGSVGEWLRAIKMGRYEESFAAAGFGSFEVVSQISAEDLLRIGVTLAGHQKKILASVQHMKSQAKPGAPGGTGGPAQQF
UniProt P54775, whole entry: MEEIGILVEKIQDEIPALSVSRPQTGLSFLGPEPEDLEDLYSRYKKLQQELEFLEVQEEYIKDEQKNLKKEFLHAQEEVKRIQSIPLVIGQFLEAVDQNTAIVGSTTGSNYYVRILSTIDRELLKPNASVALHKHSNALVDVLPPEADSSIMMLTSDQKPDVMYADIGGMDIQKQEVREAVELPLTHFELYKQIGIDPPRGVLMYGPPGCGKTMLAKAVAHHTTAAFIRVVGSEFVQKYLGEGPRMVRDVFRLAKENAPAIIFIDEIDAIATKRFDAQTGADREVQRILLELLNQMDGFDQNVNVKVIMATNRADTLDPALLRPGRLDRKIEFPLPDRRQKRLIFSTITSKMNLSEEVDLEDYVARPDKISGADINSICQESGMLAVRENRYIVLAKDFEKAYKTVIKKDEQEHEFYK
UniProt P48428: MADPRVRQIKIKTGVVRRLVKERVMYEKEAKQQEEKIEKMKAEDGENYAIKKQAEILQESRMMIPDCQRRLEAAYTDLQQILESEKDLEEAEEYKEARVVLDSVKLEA

The targets below were run with CN[C@@H]1C[C@H]2O[C@@](C)([C@@H]1OC)n1c3ccccc3c3c4c(c5c6ccccc6n2c5c31)C(=O)NC4 [staurosporine] (assay: log2 fold change of pooled soluble protein (PISA), ligand vs vehicle (log2 ratio); higher = more thermally stabilized). Conditions: ligand concentration: 20 uM; assay format: PISA pool 52.9/55.5/58.6 C.

Row | Target | log2 fold change of pooled soluble protein
1 | UniProt P42125 | -0.057
2 | UniProt P51855 | 0.0621
3 | UniProt P32020 | -0.0115
4 | UniProt P29754 | -0.131
5 | UniProt P49222 | -0.0176
6 | UniProt P50427 | -0.0462
7 | UniProt P52332 | -0.363
8 | UniProt P52019 | -0.00198
9 | UniProt P56654 | 0.183
10 | UniProt P34884 | -0.923
11 | UniProt P56593 | -0.0708
12 | UniProt P51174 | -0.0341
13 | UniProt P37040 | -0.0313
14 | UniProt P55096 | 0.126
15 | UniProt P49586 | -0.0131
16 | UniProt P53994 | -0.061
17 | UniProt P35822 | -0.106
18 | UniProt P35585 | -0.00789
19 | UniProt P46718 | -0.0326

Another view of some results above.
Row	Target	log2 fold change of pooled soluble protein
9	UniProt P56654	0.183
10	UniProt P34884	-0.923
11	UniProt P56593	-0.0708
12	UniProt P51174	-0.0341
13	UniProt P37040	-0.0313
14	UniProt P55096	0.126
15	UniProt P49586	-0.0131
16	UniProt P53994	-0.061
17	UniProt P35822	-0.106
18	UniProt P35585	-0.00789

The list continues:

Row | Target | log2 fold change of pooled soluble protein
20 | UniProt P31786 | -0.052
21 | UniProt P38060 | -0.0596
22 | UniProt P46061 | 0.0829
23 | UniProt P35831 | -0.0249
24 | UniProt P49025 | 0.138
25 | UniProt P56380 | -0.0466
26 | UniProt P46737 | 0.0669
27 | UniProt P29699 | -0.128
28 | UniProt P49312 | -0.0725
29 | UniProt P47740 | 0.0157
30 | UniProt P40142 | -0.218
31 | UniProt P54761 | 0.163
32 | UniProt P51125 | 0.0591
33 | UniProt P40237 | -0.123
34 | UniProt P54822 | -0.00278
35 | UniProt P54775 | 0.027
36 | UniProt P51432 | -0.27
37 | UniProt P48428 | -0.146
